Results are given in words; binding and its absence hold for the method and conditions named. Binding seen in cells or lysates may run through a third protein. Binding calls can cover weak binding; strength is not graded here. One block for each molecule: values may come before it.
Columns and labels:
[1] = target: T1, Toll‐like receptor 4 (rat, endogenous) (rat (endogenous in H9C2 and rat primary cardiomyocytes)) (UniProt Q9QX05); experiment: co-IP; lysates of rat primary cardiomyocytes (control, HG 30 min, with or without 10 uM Sch B pretreatment 1 h); MD2/TLR4, TLR4/TRIF and TLR4/MyD88 complexes; protein G-Sepharose
T1 sequence: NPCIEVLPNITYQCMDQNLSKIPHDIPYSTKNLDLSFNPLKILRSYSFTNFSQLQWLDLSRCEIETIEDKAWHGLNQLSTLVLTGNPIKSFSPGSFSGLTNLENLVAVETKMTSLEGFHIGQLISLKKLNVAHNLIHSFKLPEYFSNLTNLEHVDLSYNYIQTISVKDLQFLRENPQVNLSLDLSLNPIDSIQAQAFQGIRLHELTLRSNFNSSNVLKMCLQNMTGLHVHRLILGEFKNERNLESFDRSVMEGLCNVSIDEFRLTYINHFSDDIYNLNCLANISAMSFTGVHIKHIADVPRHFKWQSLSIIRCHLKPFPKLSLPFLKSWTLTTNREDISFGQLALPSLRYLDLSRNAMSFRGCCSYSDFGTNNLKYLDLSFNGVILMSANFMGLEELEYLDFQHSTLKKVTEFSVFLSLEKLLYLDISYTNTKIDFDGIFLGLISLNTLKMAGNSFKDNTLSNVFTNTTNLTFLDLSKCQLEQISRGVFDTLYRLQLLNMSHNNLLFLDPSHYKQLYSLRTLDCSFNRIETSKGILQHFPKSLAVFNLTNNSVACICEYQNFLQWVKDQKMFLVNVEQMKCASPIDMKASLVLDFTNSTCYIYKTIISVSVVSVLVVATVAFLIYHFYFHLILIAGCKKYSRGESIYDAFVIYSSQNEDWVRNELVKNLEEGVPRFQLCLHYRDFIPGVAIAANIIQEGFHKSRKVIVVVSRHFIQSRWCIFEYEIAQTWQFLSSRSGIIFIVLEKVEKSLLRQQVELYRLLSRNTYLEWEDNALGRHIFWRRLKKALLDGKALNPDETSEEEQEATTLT

[2] = target: T1, Toll‐like receptor 4 (rat, endogenous) (rat (endogenous in H9C2 and rat primary cardiomyocytes)); experiment: co-IP; lysates of H9C2 cells (control, HG 33 mM glucose 30 min, with or without 10 uM Sch B pretreatment 1 h); TLR4 immunoprecipitated and TRIF, MyD88 blotted; MD2 immunoprecipitated and TLR4 blotted; TLR2-MyD88 co-IP (Figure S5); protein G-Sepharose
[3] = target: myeloid differentiation factor 2 (rat, endogenous) (rat (endogenous in H9C2 and rat primary cardiomyocytes)); experiment: co-IP; lysates of rat primary cardiomyocytes (control, HG 30 min, with or without 10 uM Sch B pretreatment 1 h); MD2/TLR4, TLR4/TRIF and TLR4/MyD88 complexes; protein G-Sepharose
[4] = target: myeloid differentiation factor 2 (rat, endogenous) (rat (endogenous in H9C2 and rat primary cardiomyocytes)); experiment: co-IP; lysates of H9C2 cells (control, HG 33 mM glucose 30 min, with or without 10 uM Sch B pretreatment 1 h); TLR4 immunoprecipitated and TRIF, MyD88 blotted; MD2 immunoprecipitated and TLR4 blotted; TLR2-MyD88 co-IP (Figure S5); protein G-Sepharose

binding [1]: binds | binding [2]: binds
Molecule: TIR‐domain‐containing adapter‐inducing interferon‐β (rat, endogenous)

binding [3]: binds | binding [4]: binds
B1: Toll‐like receptor 4 (rat, endogenous) (receptor, UniProt Q9QX05 26-835)
chain: T1 sequence
